From a melanoma drug combination screen (doi:10.1371/journal.pone.0140310); values rounded.

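Human melanoma cells were exposed to a pair of drugs for 72 h in 1,536-well plates and read by automated microscopy after fixing and staining. The read-out is the fraction of cleaved-PARP-positive nuclei, in % of that fraction in the DMSO control; 200 means twice the control level of this apoptosis marker. Every drug was used at one fixed concentration, the higher of two screened. These are primary screening values without error estimates. The marker varies much from line to line, for technical or biological reasons.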 Only some of the drugs and lines screened are listed, without regard to their results.

First drug in all entries: GSK0660, 5 µM, COC(=O)c1sccc1S(=O)(=O)Nc1ccc(Nc2ccccc2)cc1OC

- O=C(/C=C/c1cccnc1)NCCCCC1CCN(C(=O)c2ccccc2)CC1 at 0.05 µM : WM1716: 223; C32: 87.4; RPMI-7951: 34.2; IST-MEL1: 187; UACC-257: 47.1; SK-MEL-5: 59.5; COLO 829: 646; A2058: 71.7
- CN(C)S(=O)(=O)c1ccc2c(c1)/C(=C/c1cc3c([nH]1)CCCC3)C(=O)N2 at 2 µM : WM1716: 72.5; C32: 85.2; RPMI-7951: 172; IST-MEL1: 37.2; UACC-257: 60.4; SK-MEL-5: 169; COLO 829: 37.7; A2058: 121
- Cc1nc(Nc2ncc(C(=O)Nc3c(C)cccc3Cl)s2)cc(N2CCN(CCO)CC2)n1 at 0.02 µM : WM1716: 87.6; C32: 233; RPMI-7951: 115; IST-MEL1: 173; UACC-257: 27.1; SK-MEL-5: 198; COLO 829: 59.5; A2058: 164
- O=C(CCCCCCC(=O)Nc1ccccc1)NO at 0.4 µM : WM1716: 90.2; C32: 82.8; RPMI-7951: 85.1; IST-MEL1: 121; UACC-257: 54.9; SK-MEL-5: 185; COLO 829: 118; A2058: 92.2
- COc1ccc(C2=N[C@@H](c3ccc(Cl)cc3)[C@@H](c3ccc(Cl)cc3)N2C(=O)N2CCNC(=O)C2)c(OC(C)C)c1 at 0.5 µM : WM1716: 529; C32: 118; RPMI-7951: 109; IST-MEL1: 78.6; UACC-257: 36.8; SK-MEL-5: 246; COLO 829: 142; A2058: 69.0
- Cn1cc(C2=C(c3cn(C4CCN(Cc5ccccn5)CC4)c4ccccc34)C(=O)NC2=O)c2ccccc21 at 4 µM : WM1716: 104; C32: 97.5; RPMI-7951: 200; IST-MEL1: 31.1; UACC-257: 69.5; SK-MEL-5: 43.7; COLO 829: 73.4; A2058: 145
- Cc1cc(Nc2cc(N3CCN(C)CC3)nc(/C=C/c3ccccc3)n2)n[nH]1 at 0.2 µM : WM1716: 55.8; C32: 77.8; RPMI-7951: 73.9; IST-MEL1: 168; UACC-257: 44.0; SK-MEL-5: 63.9; COLO 829: 126; A2058: 166
- NCC(=O)Nc1ccc(-n2nc(C(F)(F)F)cc2-c2ccc3c(ccc4ccccc43)c2)cc1 at 5 µM : WM1716: 67.7; C32: 108; RPMI-7951: 119; IST-MEL1: 95.9; UACC-257: 57.1; SK-MEL-5: 286; COLO 829: 508; A2058: 66.7
- COCC[n+]1c2c(n(Cc3cnccn3)c1C)C(=O)c1ccccc1C2=O at 0.002 µM : WM1716: 176; C32: 92.9; RPMI-7951: 346; IST-MEL1: 162; UACC-257: 202; SK-MEL-5: 112; COLO 829: 99.4; A2058: 616
- O=c1[nH]nc(Sc2ncc([N+](=O)[O-])s2)n1-c1ccc2c(c1)OCCO2 at 1 µM : WM1716: 78.5; C32: 87.1; RPMI-7951: 60.9; IST-MEL1: 42.1; UACC-257: 56.4; SK-MEL-5: 147; COLO 829: 78.5; A2058: 133
- Cc1ccc(Nc2nccc(N(C)c3ccc4c(C)n(C)nc4c3)n2)cc1S(N)(=O)=O at 2 µM : WM1716: 84.7; C32: 92.3; RPMI-7951: 104; IST-MEL1: 85.4; UACC-257: 36.8; SK-MEL-5: 64.2; COLO 829: 99.5; A2058: 100
- O=C(Nc1ccccc1)c1cc([N+](=O)[O-])ccc1Cl at 10 µM : WM1716: 110; C32: 90.2; RPMI-7951: 138; IST-MEL1: 120; UACC-257: 33.8; SK-MEL-5: 170; COLO 829: 71.6; A2058: 83.0
- C[C@]1(O)C[C@@H](c2nc(-c3ccc4ccc(-c5ccccc5)nc4c3)c3c(N)nccn32)C1 at 2 µM : WM1716: 28.9; C32: 165; RPMI-7951: 54.3; IST-MEL1: 45.7; UACC-257: 77.3; SK-MEL-5: 123; COLO 829: 63.1; A2058: 70.0
- C=CCNC1=C2C[C@@H](C)C[C@H](OC)[C@H](O)[C@@H](C)/C=C(\C)[C@H](OC(N)=O)[C@@H](OC)/C=C\C=C(/C)C(=O)NC(=CC1=O)C2=O at 0.01 µM : WM1716: 85.2; C32: 790; RPMI-7951: 212; IST-MEL1: 44.0; UACC-257: 24.4; SK-MEL-5: 88.6; COLO 829: 108; A2058: 95.0
- O=C(Oc1ccc([N+](=O)[O-])cc1)N1CCC(C(O)(c2ccc3c(c2)OCO3)c2ccc3c(c2)OCO3)CC1 at 5 µM : WM1716: 45.5; C32: 78.9; RPMI-7951: 75.5; IST-MEL1: 57.2; UACC-257: 10.2; SK-MEL-5: 119; COLO 829: 132; A2058: 109
- COc1cc(N2CCC(N3CCN(C)CC3)CC2)ccc1Nc1ncc(Cl)c(Nc2ccccc2S(=O)(=O)C(C)C)n1 at 0.4 µM : WM1716: 130; C32: 101; RPMI-7951: 64.8; IST-MEL1: 159; UACC-257: 74.8; SK-MEL-5: 133; COLO 829: 92.6; A2058: 278
- COc1cc(Nc2ncc(F)c(Nc3ccc4c(n3)NC(=O)C(C)(C)O4)n2)cc(OC)c1OC at 2 µM : WM1716: 88.2; C32: 92.3; RPMI-7951: 109; IST-MEL1: 58.9; UACC-257: 28.4; SK-MEL-5: 303; COLO 829: 67.0; A2058: 204
- O=C(O)C(=O)Nc1sc2c(c1C(=O)O)CCNC2 at 8.33 µM : WM1716: 27.1; C32: 102; RPMI-7951: 237; IST-MEL1: 61.1; UACC-257: 31.8; SK-MEL-5: 39.8; COLO 829: 196; A2058: 69.7
- CO[C@@H]1[C@H](N(C)C(=O)c2ccccc2)C[C@H]2O[C@]1(C)n1c3ccccc3c3c4c(c5c6ccccc6n2c5c31)C(=O)NC4 at 0.4 µM : WM1716: 181; C32: 127; RPMI-7951: 118; IST-MEL1: 260; UACC-257: 149; SK-MEL-5: 398; COLO 829: 163; A2058: 434
- O=C(Nc1cccc(Cl)c1)Nc1ncc(CCNc2ncnc3ccsc23)s1 at 0.004 µM : WM1716: 179; C32: 132; RPMI-7951: 132; IST-MEL1: 405; UACC-257: 33.9; SK-MEL-5: 83.3; COLO 829: 178; A2058: 371
- CCc1ccc(CCOc2ccc(CC3SC(=O)NC3=O)cc2)nc1 (centres undefined) at 10 µM : WM1716: 104; C32: 172; RPMI-7951: 43.6; IST-MEL1: 59.3; UACC-257: 42.9; SK-MEL-5: 117; COLO 829: 28.8; A2058: 161
- COc1cc([C@@H]2c3cc4c(cc3[C@@H](O[C@@H]3O[C@@H]5CO[C@@H](C)O[C@H]5[C@H](O)[C@H]3O)[C@H]3COC(=O)[C@H]23)OCO4)cc(OC)c1O at 0.1 µM : WM1716: 120; C32: 81.0; RPMI-7951: 48.4; IST-MEL1: 87.7; UACC-257: 69.5; SK-MEL-5: 59.4; COLO 829: 32.6; A2058: 145
- CO[C@H]1C[C@@H]2CC[C@@H](C)[C@@](O)(O2)C(=O)C(=O)N2CCCC[C@H]2C(=O)O[C@H]([C@H](C)C[C@@H]2CC[C@@H](OCCO)[C@H](OC)C2)CC(=O)[C@H](C)/C=C(\C)[C@@H](O)[C@@H](OC)C(=O)[C@H](C)C[C@H](C)/C=C/C=C/C=C/1C at 0.1 µM : WM1716: 88.6; C32: 82.2; RPMI-7951: 71.1; IST-MEL1: 293; UACC-257: 61.8; SK-MEL-5: 72.1; COLO 829: 85.0; A2058: 639
- CN(c1ncccc1CNc1nc(Nc2ccc3c(c2)CC(=O)N3)ncc1C(F)(F)F)S(C)(=O)=O at 0.4 µM : WM1716: 29.0; C32: 221; RPMI-7951: 143; IST-MEL1: 94.3; UACC-257: 184; SK-MEL-5: 123; COLO 829: 208; A2058: 129
- CC1(C)CCC(c2ccc(Cl)cc2)=C(CN2CCN(c3ccc(C(=O)NS(=O)(=O)c4ccc(N[C@H](CCN5CCOCC5)CSc5ccccc5)c(S(=O)(=O)C(F)(F)F)c4)cc3)CC2)C1 at 2 µM : WM1716: 726; C32: 343; RPMI-7951: 155; IST-MEL1: 64.1; UACC-257: 332; SK-MEL-5: 164; COLO 829: 116; A2058: 118
- C[C@@H](Oc1cc(-c2cnn(C3CCNCC3)c2)cnc1N)c1c(Cl)ccc(F)c1Cl at 1 µM : WM1716: 78.4; C32: 102; RPMI-7951: 230; IST-MEL1: 53.5; UACC-257: 37.4; SK-MEL-5: 129; COLO 829: 105; A2058: 95.3
- O=C(O)c1ccc2c(c1)nc(Nc1cccc(Cl)c1)c1ccncc12 at 2 µM : WM1716: 219; C32: 87.3; RPMI-7951: 122; IST-MEL1: 87.0; UACC-257: 33.0; SK-MEL-5: 104; COLO 829: 428; A2058: 158
- CCN(CC)CCNC(=O)c1c(C)[nH]c(/C=C2\C(=O)Nc3ccc(F)cc32)c1C at 2 µM : WM1716: 217; C32: 84.2; RPMI-7951: 65.6; IST-MEL1: 80.5; UACC-257: 32.5; SK-MEL-5: 107; COLO 829: 54.8; A2058: 212
- Nc1ncn([C@H]2C[C@H](O)[C@@H](CO)O2)c(=O)n1 at 0.5 µM : WM1716: 30.8; C32: 77.3; RPMI-7951: 48.9; IST-MEL1: 217; UACC-257: 71.2; SK-MEL-5: 122; COLO 829: 82.1; A2058: 138
- C/C(O)=C(\C#N)C(=O)Nc1cc(Br)ccc1Br at 10 µM : WM1716: 87.8; C32: 101; RPMI-7951: 81.6; IST-MEL1: 27.5; UACC-257: 12.8; SK-MEL-5: 21.1; COLO 829: 99.4; A2058: 86.3
- Cc1cc(SCc2sc(-c3ccc(C(F)(F)F)c(F)c3)nc2C)ccc1OCC(=O)O at 10 µM : WM1716: 79.6; C32: 108; RPMI-7951: 73.7; IST-MEL1: 30.0; UACC-257: 49.9; SK-MEL-5: 111; COLO 829: 103; A2058: 167
- c1cc(-c2cnn3cc(-c4ccc(OCCN5CCCCC5)cc4)cnc23)ccn1 at 2 µM : WM1716: 194; C32: 139; RPMI-7951: 76.6; IST-MEL1: 55.2; UACC-257: 100; SK-MEL-5: 110; COLO 829: 37.7; A2058: 279
- CCCCCCCCCCCC1=C(O)C(=O)C=C(O)C1=O at 6 µM : WM1716: 85.8; C32: 77.3; RPMI-7951: 50.8; IST-MEL1: 80.3; UACC-257: 16.7; SK-MEL-5: 37.5; COLO 829: 158; A2058: 67.9
- CS(=O)(=O)c1ccc(C(=O)Nc2ccc(Cl)c(-c3ccccn3)c2)c(Cl)c1 at 5 µM : WM1716: 211; C32: 75.4; RPMI-7951: 52.0; IST-MEL1: 108; UACC-257: 82.3; SK-MEL-5: 106; COLO 829: 112; A2058: 85.0
- Cn1nnc2c(C(N)=O)ncn2c1=O at 10 µM : WM1716: 333; C32: 84.1; RPMI-7951: 71.1; IST-MEL1: 136; UACC-257: 40.3; SK-MEL-5: 79.6; COLO 829: 70.6; A2058: 539

The first 4 entries again:

* O=C(/C=C/c1cccnc1)NCCCCC1CCN(C(=O)c2ccccc2)CC1 at 0.05 µM | WM1716: 223; C32: 87.4; RPMI-7951: 34.2; IST-MEL1: 187; UACC-257: 47.1; SK-MEL-5: 59.5; COLO 829: 646; A2058: 71.7
* CN(C)S(=O)(=O)c1ccc2c(c1)/C(=C/c1cc3c([nH]1)CCCC3)C(=O)N2 at 2 µM | WM1716: 72.5; C32: 85.2; RPMI-7951: 172; IST-MEL1: 37.2; UACC-257: 60.4; SK-MEL-5: 169; COLO 829: 37.7; A2058: 121
* Cc1nc(Nc2ncc(C(=O)Nc3c(C)cccc3Cl)s2)cc(N2CCN(CCO)CC2)n1 at 0.02 µM | WM1716: 87.6; C32: 233; RPMI-7951: 115; IST-MEL1: 173; UACC-257: 27.1; SK-MEL-5: 198; COLO 829: 59.5; A2058: 164
* O=C(CCCCCCC(=O)Nc1ccccc1)NO at 0.4 µM | WM1716: 90.2; C32: 82.8; RPMI-7951: 85.1; IST-MEL1: 121; UACC-257: 54.9; SK-MEL-5: 185; COLO 829: 118; A2058: 92.2